Measured values: PMC9379403

Sequences of proteins named here, by UniProt entry; tags and fusion partners are left off. A change or cut given only in a name is not applied to a line headed by its entry.
UniProt P13020: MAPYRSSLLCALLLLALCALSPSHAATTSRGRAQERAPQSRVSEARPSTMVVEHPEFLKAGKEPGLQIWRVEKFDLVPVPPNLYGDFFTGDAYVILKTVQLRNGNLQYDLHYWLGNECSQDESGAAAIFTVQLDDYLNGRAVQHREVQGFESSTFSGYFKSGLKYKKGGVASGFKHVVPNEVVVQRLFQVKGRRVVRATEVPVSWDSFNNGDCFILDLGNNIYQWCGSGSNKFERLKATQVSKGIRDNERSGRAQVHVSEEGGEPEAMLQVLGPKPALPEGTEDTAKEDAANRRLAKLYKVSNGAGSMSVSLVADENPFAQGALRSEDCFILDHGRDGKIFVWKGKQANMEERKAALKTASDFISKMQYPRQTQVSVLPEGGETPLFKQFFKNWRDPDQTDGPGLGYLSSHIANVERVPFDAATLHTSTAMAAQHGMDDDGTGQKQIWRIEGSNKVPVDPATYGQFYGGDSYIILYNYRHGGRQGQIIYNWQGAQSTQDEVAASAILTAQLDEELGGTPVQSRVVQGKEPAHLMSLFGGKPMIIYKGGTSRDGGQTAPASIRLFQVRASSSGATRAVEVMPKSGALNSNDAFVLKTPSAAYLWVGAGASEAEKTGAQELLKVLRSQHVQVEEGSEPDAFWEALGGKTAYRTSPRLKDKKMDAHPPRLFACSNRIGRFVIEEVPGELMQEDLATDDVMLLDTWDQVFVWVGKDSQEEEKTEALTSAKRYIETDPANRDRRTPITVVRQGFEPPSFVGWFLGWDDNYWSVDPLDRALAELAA

Assays:
[1] = biological target: T1, Quaking (QKI) (mouse (endogenous in sperm nuclei)) (UniProt Q9QYS9); assay: co-IP; same RIP protein fraction (QKI Ab, Protein A/G agarose beads, western blot for Gelsolin), cauda SRN of WT mice
T1 sequence: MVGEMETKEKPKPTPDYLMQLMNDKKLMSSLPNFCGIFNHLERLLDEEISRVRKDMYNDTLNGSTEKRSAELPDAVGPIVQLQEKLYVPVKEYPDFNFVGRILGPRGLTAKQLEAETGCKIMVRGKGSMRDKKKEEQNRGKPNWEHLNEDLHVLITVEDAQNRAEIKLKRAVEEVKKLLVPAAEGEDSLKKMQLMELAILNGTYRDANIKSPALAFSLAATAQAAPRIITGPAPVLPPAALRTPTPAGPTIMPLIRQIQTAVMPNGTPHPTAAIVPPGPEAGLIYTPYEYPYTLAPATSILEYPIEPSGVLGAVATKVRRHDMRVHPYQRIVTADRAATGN

[2] = biological target: T1, Quaking (QKI) (mouse (endogenous in sperm nuclei)); assay: co-IP; protein fraction of the RIP assay: lysate of SRN (RIP lysis buffer: 50 mM Tris-HCl pH 7.4, 150 mM NaCl, 5 mM EDTA, 1% NP-40, 0.1% SDS, with RNase inhibitors) incubated with QKI Ab or IgG at 4°C overnight, Protein A/G agarose beads, western blot for Gelsolin; caput SRN of WT and CB1-/- mice and cauda SRN of CB1-/- mice

Substance: Gelsolin (from UniProt P13020)
- binding [1]: no binding (only in cauda SRN of WT mice)
- binding [2]: binds

These are yes or no findings as the source states them, for the method shown. In cells and extracts the contact can be indirect. For some assays here: Binding can be weak; no strength is given.
